Among the data in PubChem BioAssay AID256 (DTP/NCI, 2004) are survivor count and T/C values, retold here.

This experiment concerns CD2F1 mice, L1210 leukemia ip, survival T/C. Put plainly: NCI In Vivo Anticancer Drug Screen. Data for tumor model L1210 Leukemia (intraperitoneal) in CD2F1 (CDF1) mice. Conditions: higher T/C = longer survival. As for the experimental part: The antitumor activity of compounds was measured in mice bearing transplantable tumors. Survival or tumor size were measured and the results are expressed as the measurement made in the treated group (T) divided by the measurement made in the vehicle treated control group (C). The tumor model used in this assay is L1210 Leukemia (intraperitoneal) in CD2F1 (CDF1) mice

Where [1] appears, read: T/C endpoint: mean survival time, dose: 100.0 mg/kg/injection, schedule: Q04DX003 (ip), vehicle: saline with Tween-80.
Where [2] appears, read: T/C endpoint: mean survival time, dose: 200.0 mg/kg/injection, schedule: Q04DX003 (ip), vehicle: saline with Tween-80.
Where [3] appears, read: T/C endpoint: mean survival time, dose: 400.0 mg/kg/injection, schedule: Q04DX003 (ip), vehicle: saline with Tween-80.
Setting [4] is: T/C endpoint: mean survival time, dose: 100.0 mg/kg/injection, schedule: Q01DX009 (ip), vehicle: saline with Tween-80.
Where [5] appears, read: T/C endpoint: mean survival time, dose: 200.0 mg/kg/injection, schedule: Q01DX009 (ip), vehicle: saline with Tween-80.
[6] abbreviates: T/C endpoint: mean survival time, dose: 150.0 mg/kg/injection, schedule: Q01DX001 (ip), vehicle: saline.
Setting [7] is: T/C endpoint: mean survival time, dose: 300.0 mg/kg/injection, schedule: Q01DX001 (ip), vehicle: saline.
Setting [8] is: T/C endpoint: mean survival time, dose: 100.0 mg/kg/injection, schedule: Q04DX002 (ip), vehicle: saline with Tween-80.
[9] abbreviates: T/C endpoint: mean survival time, dose: 400.0 mg/kg/injection, schedule: Q01DX009 (ip), vehicle: saline with Tween-80.
Setting [10] is: T/C endpoint: mean survival time, dose: 100.0 mg/kg/injection, schedule: Q01DX001 (ip), vehicle: saline with Tween-80.

SMILES strings stand for the structures. The list shows only some results of the screen, not a fair sample: it is rich in T/C values a quarter to a half above the control, in often repeated tests (any T/C) and in doses without a T/C. Further doses and runs are listed elsewhere. T/C is the treated group as % of the vehicle group. Some doses have a count of surviving animals in place of a T/C: the source holds a T/C of zero for them, seemingly a mark for toxic or unscored doses. Some survivor counts are full or nearly so, which does not show that the dose was tolerated: survival well below the control is almost never listed, so the zero probably covers shortened survival too. Survivors were counted at the toxicity check, usually on the fifth day, unless a day is given; later deaths do not show. Schedule codes are those of the source, read here as Q, the interval in days (D) or hours (H), X, the number of doses. Counts like (3×) count equal records among those shown. Some doses were run more than once; the results are listed from low to high. For survival time, the PubChem record calls one and a half times the control and up active, and a quarter to a half above the control has no call in these data; cut-offs in other NCI protocols can differ. Some T/C values carry the count of animals alive at the toxicity check (mostly the fifth day); without a count, all were alive then.

With `O=C(Nc1ccc([N+](=O)[O-])cc1)OCC#CC#CCOC(=O)Nc1ccc([N+](=O)[O-])cc1`, the survivor count (T/C endpoint: mean survival time, dose: 400.0 mg/kg/injection, schedule: Q04DX003 (ip), vehicle: Klucel (hydroxypropylcellulose) (HPC)) is recorded as 1 of 6.

Regarding `Cc1cc(N/N=C/c2ccccn2)nc2ccccc12`, the survivor count (T/C endpoint: median survival time, dose: 100.0 mg/kg/injection, schedule: Q01DX009 (ip), vehicle: Klucel (hydroxypropylcellulose) (HPC)) is given as 3 of 6.

As to `COC(=O)C=P(c1ccccc1)(c1ccccc1)c1ccccc1`, the survivor count under setting [1] is recorded as 1 of 6; the survivor count under setting [2] is 0 of 6 and 1 of 6; the survivor count under setting [3] was 0 of 6 (2×).

In the case of `CCCCc1c(C)[nH]c(=S)[nH]c1=O`, the survivor count under setting [3] is recorded as 6 of 6.

For `CC1=C(O)C(=O)[C@@H]2O[C@@H]2C1=O`, the survivor count is 3 of 6 (T/C endpoint: mean survival time, dose: 12.5 mg/kg/injection, schedule: Q01DX009 (ip), vehicle: saline) and 0 of 6 (T/C endpoint: mean survival time, dose: 25.0 mg/kg/injection, schedule: Q01DX009 (ip), vehicle: saline).

Turning to `NC(=Nc1ccc(Cl)cc1)/N=C(/N)N1CCN(/C(N)=N/C(N)=Nc2ccc(Cl)cc2)CC1`, the survivor count under setting [4] is recorded as 0 of 6, the survivor count under setting [5] was 0 of 6 and the survivor count under setting [3] was 0 of 6.

Regarding `[Cl][Pt+2][Cl].[NH-]CC([NH-])c1ccc2oc3ccccc3c2c1` (stereo not drawn), the survivor count reads like this: (T/C endpoint: median survival time, dose: 160.0 mg/kg/injection, schedule: Q04DX003 (ip), vehicle: saline with Tween-80) 0 of 6; (T/C endpoint: median survival time, dose: 320.0 mg/kg/injection, schedule: Q04DX003 (ip), vehicle: saline with Tween-80) 0 of 6.

Take `C[n+]1ccc2c(Br)cccc2c1`: the survivor count under setting [6] was 3 of 6 and the survivor count under setting [7] is listed as 3 of 6.

Consider `CN(C)C(C)(C)CC(C)(C)C`, for which the survivor count reads like this: under setting [2], 0 of 3; under setting [3], 0 of 3.

Take `CN(C)Cc1c[nH]c2ncccc12`: the survivor count reads like this: under setting [1], 0 of 6; under setting [2], 0 of 6; under setting [3], 0 of 6.

With `C[N+](C)(C)/N=C/C=C/c1ccccc1`, the survivor count runs as follows: under setting [4], 1 of 3; under setting [5], 0 of 3.

Regarding `O=C(c1ccccc1)c1ccsc1C(=O)O`, the survivor count under setting [8] is listed as 1 of 3.

With `CN(C)N=Nc1cccnc1`, under “T/C endpoint: mean survival time, dose: 75.0 mg/kg/injection, schedule: Q01DX001 (ip), vehicle: saline”, the T/C is 125 % of control. Also, the survivor count by setting is: under setting [6], 3 of 6; under setting [7], 0 of 6.

As to `COc1cc2cc3c(c(O)c2c(O)c1/C=C/C(C)C)C(=O)CC(C)(OC(C)=O)C3` (stereo not drawn), the survivor count runs as follows: (T/C endpoint: median survival time, dose: 40.0 mg/kg/injection, schedule: Q01DX009 (ip), vehicle: Klucel (hydroxypropylcellulose) (HPC)) 5 of 6; (T/C endpoint: median survival time, dose: 80.0 mg/kg/injection, schedule: Q01DX009 (ip), vehicle: Klucel (hydroxypropylcellulose) (HPC)) 3 of 6; (T/C endpoint: median survival time, dose: 160.0 mg/kg/injection, schedule: Q01DX009 (ip), vehicle: Klucel (hydroxypropylcellulose) (HPC)) 0 of 6.

As for `CC1(C)NC(=O)N(Br)C1=O`, the survivor count under setting [9] is recorded as 0 of 6.

With `O=C(/C=C(\Cl)C(=O)NO)NO`, the survivor count (T/C endpoint: mean survival time, dose: 200.0 mg/kg/injection, schedule: Q01DX009 (ip), vehicle: saline) was 4 of 10 and 3 of 6.

As to `CCCCOC(=O)c1ccccc1`, the survivor count under setting [9] is on record as 6 of 6.

With `C=C[CH2][Sn]([c]1ccccc1)([c]1ccccc1)[c]1ccccc1`, where the note is “T/C endpoint: mean survival time, dose: 25.0 mg/kg/injection, schedule: Q04DX003 (ip), vehicle: saline with Tween-80”, the survivor count is on record as 3 of 3.

With `CC(=O)OC1CCC2(C)C3CCC4(C)C(OC(=O)c5ccccc5)CCC4C3C3C(=O)OC32C1` (stereo not drawn), the survivor count reads like this: under setting [10], 6 of 6; (T/C endpoint: mean survival time, dose: 400.0 mg/kg/injection, schedule: Q01DX001 (ip), vehicle: saline with Tween-80) 6 of 6.

With `O=CNc1ccc2c(c1)C(Br)c1ccccc1-2` (stereo not drawn), the survivor count was 6 of 6 under setting [5] and 3 of 6 under setting [9].

Consider `O=S(=O)(C1CCCCC1)N1N=NC2CCCCC21` (stereo not drawn), for which, under setting [3], the survivor count is recorded as 2 of 6.

`NNC(=O)CNc1cccc(Br)c1`: under “T/C endpoint: mean survival time, dose: 400.0 mg/kg/injection, schedule: Q01DX001 (ip), vehicle: Klucel (hydroxypropylcellulose) (HPC)”, the survivor count is 1 of 6.

As to `N#CCS(=O)(=O)c1ccccc1`, the survivor count under setting [10] is listed as 0 of 6 and the survivor count (T/C endpoint: mean survival time, dose: 200.0 mg/kg/injection, schedule: Q01DX001 (ip), vehicle: saline with Tween-80) was 0 of 6.

`Cc1n[nH]c2ccc(Br)cc2c1=O`: under setting [3], the survivor count is on record as 2 of 6.

For `CC(=O)c1cc2c(cc1C(C)C)CC[C@H]1[C@](C)(C#N)CCC[C@]21C`, the survivor count runs as follows: under setting [2], 6 of 6; under setting [3], 6 of 6.

Take `CCc1ncc(CO)n1Cc1ccccc1`: the survivor count runs as follows: under setting [5], 4 of 6; under setting [9], 0 of 6.

For `CCNC(=O)C(C)Br` (stereo not drawn), the survivor count (T/C endpoint: mean survival time, dose: 400.0 mg/kg/injection, schedule: Q01DX001 (ip), vehicle: saline) was 2 of 4.

Regarding `COc1ccc2nc3c(C)c4ccn(O)cc4c(C)c3c2c1`, the T/C (T/C endpoint: mean survival time, dose: 200.0 mg/kg/injection, schedule: Q04DX003 (ip), vehicle: water) is 128 % of control and the T/C (T/C endpoint: mean survival time, dose: 400.0 mg/kg/injection, schedule: Q04DX003 (ip), vehicle: water) is 128 % of control [5 of 6 alive].

Turning to `CC(C)N1C(=O)C2C3C=CC(C3)C2C1=O` (stereo not drawn), the survivor count reads like this: under setting [8], 1 of 3; (T/C endpoint: mean survival time, dose: 200.0 mg/kg/injection, schedule: Q04DX002 (ip), vehicle: saline with Tween-80) 0 of 3; (T/C endpoint: mean survival time, dose: 400.0 mg/kg/injection, schedule: Q04DX002 (ip), vehicle: saline with Tween-80) 0 of 3.

In the case of `CN(C)C(=O)OCC#CCOC(=O)N(C)C`, the survivor count (T/C endpoint: mean survival time, dose: 400.0 mg/kg/injection, schedule: Q04DX002 (ip), vehicle: saline) is on record as 1 of 3.
